Assay results published in PubChem BioAssay AID540256 (National Center for Advancing Translational Sciences (NCATS), 2011).
Out of some 300,000 compounds screened, about 3,700 (1.2%) were called active. The shares of active, inactive and inconclusive entries below differ from those in the screen. Calls come from the whole dose curve; tested in HEK293 cells. A potency beside an inconclusive call is a rough fit, not a confirmed value.

Assay: qHTS for Inhibitors of binding or entry into cells for Lassa Virus; note: nearly all actives have a fitted effect of over 50% in size
Settings: Lassa virus pseudotype entry inhibition, cell reporter; activity change, negative = inhibition: at 37.9 µM (top of the series) unless noted
% is set by controls: 0 for no effect and ±100 for the full control effect; potency is the fitted concentration of half-maximal effect.

SMILES	Potency	activity change, negative = inhibition
CCOc1ccccc1N1CC(c2nc3ccccc3n2CCCCOc2cc(C)ccc2C)CC1=O (configuration not stated)	inconclusive: 11.2 µM [inhibitor, single point]	
COCCNS(=O)(=O)c1ccc(-c2ccc(C)cc2)cc1	inconclusive: 29.1 µM [inhibitor, partial curve, poor fit]	
CC(C)c1ccc(NC(=O)CSc2n[nH]c(=O)n2-c2cccnc2)cc1		inactive: 3.79% [at 46.1 µM]
O=C1COc2ccc(S(=O)(=O)N3CCN(c4ccccc4F)CC3)cc2N1	inconclusive: 11.2 µM [inhibitor, partial curve, poor fit]	
Oc1cccc(C2c3[nH]c4ccccc4c3CCN2Cc2cnn(-c3ccccc3)c2)c1 (configuration not stated)	inconclusive: 35.5 µM [inhibitor, single point]	
CCN(CC)C(=O)c1sc2c(c1C)c(=O)n(CCc1ccccc1)c(=O)n2Cc1cccc(Cl)c1	active: 6.31 µM	
COc1ccc(C2=NN(C(=O)CSc3ncccn3)C(c3ccc(OC)cc3)C2)cc1 (configuration not stated)	inconclusive: 3.98 µM [inhibitor, partial curve, poor fit]	
CCCCOc1ccc(CN2C(=O)C(=O)c3cc(C)ccc32)cc1OC	inconclusive: 35.5 µM [inhibitor, single point]	
CC(=O)Nc1ccc(S(=O)(=O)Nc2ccc3c(c2)OCO3)cc1		inactive: -10.1% [at 46.1 µM]
CCOC(=O)N1CCC(=C(C#N)C(=O)Nc2cc(OC)ccc2OC)CC1	inconclusive: 0.0046 µM [inhibitor, full curve, poor fit]	
O=C(NCCc1ccccc1)c1ccc(CSc2nc3ccncc3n2Cc2cccc(F)c2)cc1		inactive: -19.6% [at 46.1 µM]
Cc1ccc(C(=O)Oc2oc(-c3ccco3)nc2C=Nc2ccc(Cl)cc2)cc1	inconclusive: 11.2 µM [inhibitor, single point]	
O=C(Nc1cccc(S(=O)(=O)N2CCCCCC2)c1)c1ccc2ccccc2n1		inactive: 5.64%
OC(COCc1cccs1)CN1CCN(c2cccc(Cl)c2)CC1 (configuration not stated)	inconclusive: 22.4 µM [inhibitor, partial curve, poor fit]	
COc1cccc(NC(=O)COC(=O)c2ccc3ccccc3n2)c1	inconclusive: 8.91 µM [activator, partial curve, poor fit]	
CCNc1nc(N2CCCC2)nc(N2CCCC2)n1		inactive: -6.57% [at 46.1 µM]
COc1cccc(C(=O)NCC(c2ccc3c(c2)OCO3)N2CCN(c3ccc(F)cc3)CC2)c1 (configuration not stated)	inconclusive: 6.31 µM [inhibitor, full curve]	
Fc1ccccc1C1c2cccn2CCN1C(=S)Nc1ccc(Br)cc1 (configuration not stated)	inconclusive: 7.94 µM [inhibitor, partial curve, poor fit]	
CCOC(=O)c1cnc(Nc2ccc(OCC)cc2)nc1C	inconclusive: 0.73 µM [inhibitor, partial curve, poor fit]	
Cc1ccc(CNC(=O)COc2ccc(C)nc2[N+](=O)[O-])cc1	inconclusive: 10.3 µM [inhibitor, partial curve]	
Cc1ccc(-c2nc(CN3CCN(C(=O)C4CCCO4)CC3)cs2)cc1 (configuration not stated)	inconclusive: 10 µM [inhibitor, single point]	

SMILES	Potency	activity change, negative = inhibition
CCn1cc(/C=N/NC(=O)COc2cccc3cccnc23)c2ccccc21	inconclusive: 32.6 µM [inhibitor, single point]	
Cn1nccc1C(=O)N(CCN1CCCCC1)CC1CCCN(C2CCCC2)C1 (configuration not stated)		inactive: 0.138%
O=[N+]([O-])c1ccc(NC(=S)NCc2ccc(F)cc2)cc1	inconclusive: 2.24 µM [inhibitor, full curve, poor fit]	
COc1ccc(NC(=O)C2(S(=O)(=O)c3ccc(C)cc3)CC2)cc1OC		inactive: 5.57% [at 46.1 µM]
O=[N+]([O-])c1cccnc1SCc1c(F)cccc1Cl		inactive: -2.02% [at 46.1 µM]
CCCS(=O)(=O)c1nc(S(=O)(=O)c2ccc(Cl)cc2)c(N2CCC(O)CC2)s1		inactive: 25% [at 46.1 µM]
COc1cccc(NC(=O)c2cccc(S(=O)(=O)N3CCN(Cc4ccccc4)CC3)c2)c1	inconclusive: 7.94 µM [inhibitor, partial curve, poor fit]	
NS(=O)(=O)c1ccc(CCNCc2ccccc2OCc2ccc(F)cc2)cc1	inconclusive: 11.2 µM [inhibitor, partial curve, poor fit]	
CCN(CC)S(=O)(=O)c1ccc2oc(SCC3CN=C(c4ccc(OC)cc4)S3)nc2c1 (configuration not stated)	inconclusive: 14.6 µM [inhibitor, partial curve, poor fit]	
NC(=O)/C=C\C(=O)Nc1cccc(C(F)(F)F)c1	inconclusive: 16.4 µM [inhibitor, single point]	
CCOC(=O)C1(CCc2ccccc2)CCN(C(=O)c2cnc(C)cn2)CC1		inactive: 4.7% [at 46.1 µM]
Cc1cc(O)cc(O)c1C(=O)Cc1ccccc1	inconclusive: 31.6 µM [inhibitor, partial curve, poor fit]	
CCOc1ccc(NC(=O)CC2C(=O)N(c3ccc(OC)cc3)C(=O)N2CCc2cccs2)cc1 (configuration not stated)	active: 7.31 µM	
CCOc1ccc(S(=O)(=O)N(C)c2ccc(OCC(=O)Nc3ccccc3F)cc2)cc1	inconclusive: 22.4 µM [inhibitor, single point]	
COc1cccc(CC(=O)N2CCC(n3nccc3NC(=O)C3CC3)CC2)c1	inconclusive: 3.55 µM [activator, single point]	
CCC1=C(c2ccc(C)cc2)S(=O)(=O)N=C1N1CCC(C(=O)N2CCCCC2)CC1		inactive: -5.42% [at 46.1 µM]
Cn1nc(-c2ccccc2)c(CO)c1Sc1ccccc1	inconclusive: 14.1 µM [inhibitor, partial curve, poor fit]	
O=C(NCc1ccccc1)c1cccc(NC(=O)c2ccco2)c1	inconclusive: 3.98 µM [inhibitor, partial curve, poor fit]	
COc1cc(/C=N/NC(=O)c2ccc3nc[nH]c3c2)cc(OC)c1OC		inactive: -0.936%
CCNc1nc(NC(C)(C)C)nc(N2CCCCC2)n1	inconclusive: 3.55 µM [inhibitor, partial curve, poor fit]	
COc1ccc(N(CC(=O)NCCSCc2ccco2)S(=O)(=O)c2ccccc2)cc1Cl	inconclusive: 31.6 µM [inhibitor, single point]	

Shown with each value named: entries from further up
CCCCOc1ccc(CN2C(=O)C(=O)c3cc(C)ccc32)cc1OC
  Potency: inconclusive: 35.5 µM [inhibitor, single point]
CC(=O)Nc1ccc(S(=O)(=O)Nc2ccc3c(c2)OCO3)cc1
  activity change, negative = inhibition: inactive: -10.1% [at 46.1 µM]
